# According to the supplement of paper PMC8728848:
# Some of the results follow.
# B1: Erv41-EDTA (Saccharomyces cerevisiae), Q04651 (protein)
# chain: MKFLVNVALVFMVVYISYIYAAAPEHHHHHHDYDIPTTENLYFQGAMGYIDQQYVVDSQVRDTVQINMDIYVNTKCDWLQINVRDQTMDRKLVLEELQLEEMPFFIPYDTKVNDINEIITPELDEILGEAIPAEFREKLDTRSFFDESDPNKAHLPEFNGCHVFGSIPVNRVSGELQITAKSLGYVASRKAPLEELKFNHVINEFSFGDFYPYIDNPLDNTAQFNQDEPLTTYVYYTSVVPTLFKKLGAEVDTNQYSVNDYRYLYKDVAAKGDKMPGIFFKYNFEPLSIVVSDVRL
# How the values were obtained:
# Assay in all cases: glycan array binding signal (z-score within array); higher = stronger binding
# Conditions in all cases: glycan notation: IUPAC condensed, linker removed
# [1] = biological target: Neu5Ac(a2-3)Gal6S(b1-4)[Fuc(a1-3)]GlcNAc
# Method in brief: (§1)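 Glycan array binding is given as a within-array Z-score, which can be read as non-binding when negative. The arrays, 3228 of them, came from the Consortium for Functional Glycomics database and were retained only where the protein sequence was available. Z-scores were averaged across arrays of the same protein sequence at different concentrations or buffers and across linkers.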
# [2] = biological target: Neu5Ac(a2-3)GalNAc
# Method in brief: as §1
# [3] = biological target: Neu5Ac(a2-3)GalNAc(b1-4)GlcNAc
# Method in brief: as §1
# [4] = biological target: Neu5Ac(a2-3)[GalNAc(b1-4)]Gal(b1-4)Glc
# Method in brief: as §1
# [5] = biological target: Neu5Ac(a2-3)[GalNAc(b1-4)]Gal(b1-4)GlcNAc
# Method in brief: as §1
# [6] = biological target: Neu5Ac(a2-3)[GalNAc(b1-4)]Gal(b1-4)GlcNAc(b1-3)GalNAc
# Method in brief: as §1
# [7] = biological target: Neu5Ac(a2-3)[Neu5Ac(a2-6)]GalNAc
# Method in brief: as §1
# [8] = biological target: Neu5Ac(a2-6)Gal
# Method in brief: as §1
# [9] = biological target: Neu5Ac(a2-6)Gal(b1-3)GlcNAc(b1-3)[Gal(b1-4)GlcNAc(b1-6)]Gal(b1-4)Glc
# Method in brief: as §1
# [10] = biological target: Neu5Ac(a2-6)Gal(b1-4)Glc
# Method in brief: as §1
# [11] = biological target: Neu5Ac(a2-6)Gal(b1-4)GlcNAc
# Method in brief: as §1
# [12] = biological target: Neu5Ac(a2-6)Gal(b1-4)GlcNAc(b1-2)Man
# Method in brief: as §1
# [13] = biological target: Neu5Ac(a2-6)Gal(b1-4)GlcNAc(b1-2)Man(a1-3)Man(b1-4)GlcNAc(b1-4)GlcNAc
# Method in brief: as §1
# [14] = biological target: Neu5Ac(a2-6)Gal(b1-4)GlcNAc(b1-2)Man(a1-3)[Gal(b1-4)GlcNAc(b1-2)Man(a1-6)]Man(b1-4)GlcNAc(b1-4)GlcNAc
# Method in brief: as §1
# [15] = biological target: Neu5Ac(a2-6)Gal(b1-4)GlcNAc(b1-2)Man(a1-3)[GlcNAc(b1-2)Man(a1-6)]Man(b1-4)GlcNAc(b1-4)GlcNAc
# Method in brief: as §1
# [16] = biological target: Neu5Ac(a2-6)Gal(b1-4)GlcNAc(b1-2)Man(a1-3)[GlcNAc(b1-4)][Neu5Ac(a2-6)Gal(b1-4)GlcNAc(b1-2)Man(a1-6)]Man(b1-4)GlcNAc(b1-4)GlcNAc
# Method in brief: as §1
# [17] = biological target: Neu5Ac(a2-6)Gal(b1-4)GlcNAc(b1-2)Man(a1-3)[Man(a1-6)]Man(b1-4)GlcNAc(b1-4)GlcNAc
# Method in brief: as §1
# [18] = biological target: Neu5Ac(a2-6)Gal(b1-4)GlcNAc(b1-2)Man(a1-3)[Neu5Ac(a2-3)Gal(b1-4)GlcNAc(b1-2)Man(a1-6)]Man(b1-4)GlcNAc(b1-4)GlcNAc
# Method in brief: as §1
# [19] = biological target: Neu5Ac(a2-6)Gal(b1-4)GlcNAc(b1-2)Man(a1-3)[Neu5Ac(a2-6)Gal(b1-4)GlcNAc(b1-2)Man(a1-6)]Man(b1-4)GlcNAc(b1-4)GlcNAc
# Method in brief: as §1
# [20] = biological target: Neu5Ac(a2-6)Gal(b1-4)GlcNAc(b1-2)Man(a1-3)[Neu5Ac(a2-6)Gal(b1-4)GlcNAc(b1-2)Man(a1-6)]Man(b1-4)GlcNAc(b1-4)[Fuc(a1-6)]GlcNAc
# Method in brief: as §1
# [21] = biological target: Neu5Ac(a2-6)Gal(b1-4)GlcNAc(b1-2)Man(a1-6)Man(b1-4)GlcNAc(b1-4)GlcNAc
# Method in brief: as §1
# [22] = biological target: Neu5Ac(a2-6)Gal(b1-4)GlcNAc(b1-2)Man(a1-6)[Gal(b1-4)GlcNAc(b1-2)Man(a1-3)]Man(b1-4)GlcNAc(b1-4)GlcNAc
# Method in brief: as §1
binder,measurement,setting,value
B1,glycan array binding signal (z-score),[1],0.312
same,glycan array binding signal (z-score),[2],-0.308
same,glycan array binding signal (z-score),[3],-0.286
same,glycan array binding signal (z-score),[4],-1
same,glycan array binding signal (z-score),[5],-0.799
same,glycan array binding signal (z-score),[6],0.196
same,glycan array binding signal (z-score),[7],-0.909
same,glycan array binding signal (z-score),[8],-0.071
same,glycan array binding signal (z-score),[9],-0.18
same,glycan array binding signal (z-score),[10],0.512
same,glycan array binding signal (z-score),[11],0.171
same,glycan array binding signal (z-score),[12],-0.02
same,glycan array binding signal (z-score),[13],1.97
same,glycan array binding signal (z-score),[14],0.363
same,glycan array binding signal (z-score),[15],-0.231
same,glycan array binding signal (z-score),[16],-0.03
same,glycan array binding signal (z-score),[17],-0.022
same,glycan array binding signal (z-score),[18],-0.568
same,glycan array binding signal (z-score),[19],0.63
same,glycan array binding signal (z-score),[20],1.27
same,glycan array binding signal (z-score),[21],0.291
same,glycan array binding signal (z-score),[22],1.31

# Part of the list above, tab-delimited:
binder	measurement	setting	value
B1	glycan array binding signal (z-score)	[7]	-0.909
same	glycan array binding signal (z-score)	[10]	0.512
same	glycan array binding signal (z-score)	[16]	-0.03
same	glycan array binding signal (z-score)	[18]	-0.568
same	glycan array binding signal (z-score)	[19]	0.63
same	glycan array binding signal (z-score)	[21]	0.291
